About 4,300 (3.1%) of roughly 140,000 compounds were called active. The shares of active, inactive and inconclusive entries below differ from those in the screen.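 How the source made its calls: active means readout at or below -70, meaning at least 70% loss of cells showing the perinucleolar compartment, a nuclear body marking cancer cells; inconclusive means readout between -30 and a set limit; inactive means the rest.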
Assay: High Content Assay for Compounds that inhibit the Assembly of the Perinucleolar Compartment;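 further: plate controls were DMSO wells for no effect and camptothecin positive control wells for full effect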
Settings: PC3M PTB-GFP, PNC prevalence imaging, 16 h; at 10 µM; hits give low values
Outline: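 Compounds are pinned in duplicate onto adhered PC3M cells stably expressing GFP-tagged PTB and incubated 16 h at 37 C. Cells are then fixed, nuclei stained with Hoechst, and PNC-positive cells counted.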

| SMILES | activity change (PNC), negative = inhibition |
| --- | --- |
| Cc1ccc(C(=O)NC(=S)Nc2ccc(NC(=O)c3cccs3)cc2)cc1[N+](=O)[O-] | inconclusive: -62.2% |
| COc1cccc(NC(=S)N2CCN(Cc3ccccc3)CC2)c1 | inactive: 103% |
| CN(C(=O)c1ccccc1Cl)C1CCCCC1 | inconclusive: -43% |
| Nc1ncnc(NCc2ccccc2)c1[N+](=O)[O-] | inactive: -5.75% |
| Cc1cccc(C)c1NC(=O)CC1SC2=NCCN2C1=O (stereo unspecified) | inactive: 0.0815% |
| O=C(O)CCc1ccc(-c2cccs2)n1CCC(=O)O | inactive: 12.8% |
| CC(C)(C)C(=O)CNS(=O)(=O)c1ccc(S(=O)(=O)NC2CCCC2)cc1 | active: -82.4% |
| COc1c2occc2c(OC)c2c(=O)cc(C(F)(F)F)oc12 | inconclusive: -56.2% |
| O=C(CN1CCCCCC1)N/N=C/c1ccc(Cl)c(Cl)c1 | inactive: -5.99% |
| CS(=O)(=O)N1CCC(C(=O)Nc2ccccc2F)CC1 | inconclusive: -60.4% |
| CN(C)c1ccc(P(=O)(OCc2ccccc2)C(O)c2cccnc2)cc1 (stereo unspecified) | inactive: 30% |
| Cc1ccc(O)c(C=Nc2cc(C)ccc2O)c1 | inconclusive: -43.5% |
| COc1ccc(NC(=O)CN(C2CCCCC2)S(C)(=O)=O)cc1Cl | inconclusive: -42.5% |
| CC(C)CCn1c(Sc2nc3ccccc3s2)nc2c1c(=O)[nH]c(=O)n2C | inconclusive: -41.9% |
| Cc1cccc2cc(C3CC(c4cccs4)=NN3C(=O)CCC(=O)O)c(Cl)nc12 (stereo unspecified) | inconclusive: -66.1% |
| COc1cc2c(cc1OC)C(C(=O)N1CCCC1)C(c1ccccc1F)N(C)C2=O (stereo unspecified) | inconclusive: -41.7% |
| CCCC(c1nnnn1Cc1ccccc1)N1CCC(C(N)=O)CC1 (stereo unspecified) | inconclusive: -34.2% |
| CCOc1cc(C2C3=C(CCCC3=O)NC3=C2C(=O)CCC3)ccc1OCCO | inconclusive: -43.4% |
| O=c1cc(CSc2nc3ccccc3[nH]2)c2ccccc2[nH]1 | inconclusive: -36.9% |
| Cc1cc(C)c(S(=O)(=O)O)c(C)n1 | inconclusive: -69.4% |
| C(=N\Nc1nc2ccccc2[nH]1)/c1c[nH]c2ccccc12 | inactive: 11.5% |
| O=S(=O)(NC12CC3CC(CC(C3)C1)C2)c1ccc(F)cc1 | inconclusive: -42.2% |
| CC(=O)c1nn(-c2cccc(Br)c2)cc1C(=O)c1ccco1 | inactive: -10.5% |

Three compounds picked at random from those above:

| SMILES | activity change (PNC), negative = inhibition |
| --- | --- |
| Cc1cccc2cc(C3CC(c4cccs4)=NN3C(=O)CCC(=O)O)c(Cl)nc12 (stereo unspecified) | inconclusive: -66.1% |
| CC(C)CCn1c(Sc2nc3ccccc3s2)nc2c1c(=O)[nH]c(=O)n2C | inconclusive: -41.9% |
| CN(C)c1ccc(P(=O)(OCc2ccccc2)C(O)c2cccnc2)cc1 (stereo unspecified) | inactive: 30% |

Further compounds

| SMILES | activity change (PNC), negative = inhibition |
| --- | --- |
| O=C1CCCC2=C1C(c1cccs1)n1nc(SCc3ccccc3F)nc1N2 (stereo unspecified) | inconclusive: -47.2% |
| CC1CCCN(c2nc3c(c(=O)[nH]c(=O)n3C)n2Cc2ccccc2Cl)C1 (stereo unspecified) | active: -87.3% |
| CC(=O)Nc1cc(-c2nn(C)c(=O)c3ccccc23)ccc1N1CCOCC1 | inactive: 6.23% |
| Cc1cc(NC(=O)COc2ccc(Cl)cc2Cl)n(CCC#N)n1 | inconclusive: -58% |
| C=CCNc1nnc(Cl)c2ccccc12 | inconclusive: -78% |
| O=C(Oc1c(Br)cc([N+](=O)[O-])cc1Br)c1cccnc1 | inconclusive: -48.9% |
| CC(C)(C)c1nnc2sc(SCCN3C(=O)c4ccccc4C3=O)nn2c1=O | inactive: -15.7% |
| COc1ccccc1CSc1nc2ccccc2[nH]1 | inconclusive: -42.3% |
| c1cncc(-c2nnc(-c3ccco3)o2)c1 | inconclusive: -60.2% |
| CCn1c(C)nc([N+](=O)[O-])c1Sc1ccc(F)cc1 | inconclusive: -48% |
| COc1cccc(NC(=O)C(OC(=O)c2ccc([N+](=O)[O-])o2)c2ccccc2)c1 (stereo unspecified) | inactive: 6.06% |
| CS(=O)(=O)N(CC(=O)N1CCN(c2ccccc2F)CC1)c1cc(C(F)(F)F)ccc1Cl | inconclusive: -35.7% |
| CCOc1ccc(NC(=O)CSc2nnc(C)n2CC2CCCO2)cc1 (stereo unspecified) | inconclusive: -50.5% |
| Cc1ccc(SCCC(=O)N2CCC(C(N)=O)CC2)cc1 | inconclusive: -62% |
| O=[N+]([O-])c1ccccc1-c1cc(-c2ccccc2O)n[nH]1 | active: -83.4% |
| CCCC(=O)Nc1ccc(Cl)c(NC(=O)c2ccc([N+](=O)[O-])cc2Cl)c1 | inconclusive: -34.8% |
| O=C(C1CCC1)N1CCc2cc(S(=O)(=O)Nc3ccc4c(c3)OCO4)ccc21 | inconclusive: -46.6% |
| COc1ccc(CCNc2c(N)n(Cc3ccccc3)c(=O)[nH]c2=O)cc1OC | inconclusive: -31.4% |
| O=C(c1cccs1)N(Cc1nc2sc3c(c2c(=O)[nH]1)CCCC3)C1CCCC1 | active: -92.2% |
| COc1ccc(NC(=O)CS(=O)CC(=O)NC2CCCc3ccccc32)cc1 (stereo unspecified) | inconclusive: -48.3% |
| COC(=O)c1ccc(Oc2cc(C)nc(SC)n2)cc1 | inconclusive: -66% |
| CN(C)CCNC(=O)c1ccc(-c2nn(C)c(=O)c3ccccc23)cc1 | inconclusive: -37.2% |
| CCOC(=O)c1c(NC(=O)c2cccnc2Cl)sc(C(=O)N(C)C)c1C | inconclusive: -60.1% |

| SMILES | activity change (PNC), negative = inhibition |
| --- | --- |
| Cc1ccc(C(=O)NNC(=O)Cc2cccs2)cc1 | inconclusive: -70.1% |
| Cc1ccc(C(=O)Oc2ccc(-c3nccc(-c4ccccn4)n3)cc2)cc1 | inconclusive: -65.8% |
| COC(=O)C1CCN(c2cc(=O)n(-c3ccccc3Cl)c(=O)[nH]2)CC1 | inconclusive: -40% |
| Cc1nn(C(=O)c2ccco2)c(C)c1Br | inconclusive: -33.3% |
| Cc1cccc(NC(=O)C2CCCN2/C=C/C(=O)C(F)(F)F)c1C (stereo unspecified) | inconclusive: -59.5% |
| Cc1[nH]nc2cn[nH]c12 | inconclusive: -58.2% |
| O=C(NCCN1CCOCC1)C1CCC(CNS(=O)(=O)c2ccccc2)CC1 (stereo unspecified) | inactive: 14.1% |
| Cn1cccc1CC(=O)NNC(=S)Nc1ccc(Cl)cc1Cl | inactive: 49.4% |
| c1ccc(-c2noc(C3CCCCC3)n2)nc1 | inconclusive: -66.2% |
| COc1ccc2nc(SCc3nc(N)nc(Nc4ccccc4)n3)[nH]c2c1 | inconclusive: -33.9% |
| CCSc1cc(N2CCCC2)nc(-c2ccccc2)n1 | inactive: 40.1% |
| CCOC(=O)CN1CC23C=CC(O2)C(C(=O)NCc2ccc(F)cc2)C3C1=O (stereo unspecified) | inconclusive: -62.1% |
| O=C(c1cnn2cccnc12)N1CCN(Cc2ccc3c(c2)OCO3)CC1 | inconclusive: -33.7% |
| COC(=O)c1cc2c(ccn2-c2ccc(F)cc2)n1CC(=O)N1CCN(C(=O)c2ccco2)CC1 | inconclusive: -52.3% |
| CC(CNC(=O)c1cncc(O)c1)NC(=O)c1cncc(O)c1 (stereo unspecified) | inconclusive: -41.3% |
| CCCCSc1nnc(-c2cc(Br)ccc2N)c(=O)[nH]1 | inconclusive: -46.8% |
| Cc1ccc2[nH]c(C)c(CCNC(=O)C3CCCCC3C(=O)OCC(F)(F)F)c2c1 (stereo unspecified) | inconclusive: -46% |
| COc1cccc(-c2nnc3sc(-c4ccccc4)nn23)c1 | inconclusive: -34.1% |
| CN1CCCN(C(=O)Cc2c(Cl)cccc2Cl)c2nc3ccccc3nc21 | inconclusive: -30.4% |
| Cc1cc(NC(=O)CSc2nnc3c(C)cc4cc5c(cc4n23)OCO5)no1 | inconclusive: -51.4% |
| O=C(O)CSCc1cn2cc(Cl)ccc2n1 | inconclusive: -56.2% |
| N#C/C(=C\c1cn(Cc2ccccc2)c2ccccc12)C(=O)NCc1ccco1 | inactive: 15.3% |
| CCN(CC)S(=O)(=O)c1ccc(-c2nnc(SCC(=O)Nc3ccc4c(c3)OCO4)o2)cc1 | inconclusive: -52.7% |

| SMILES | activity change (PNC), negative = inhibition |
| --- | --- |
| O=c1cnn([C@@H]2O[C@H](CO)[C@@H](O)[C@H]2O)c(=O)[nH]1 | active: -111% |
| COC(=O)[C@H](C)NC(=O)Nc1cc(OC)ccc1OC | inconclusive: -68.5% |
| CCCCCn1c(N2CCN(c3cccc(Cl)c3)CC2)nc2c1c(=O)[nH]c(=O)n2C | inactive: 23.1% |
| COc1cccc(NC(=S)N/N=C2\CC(C)(C)Oc3ccc(O)cc32)c1 | inconclusive: -41.8% |
| COc1ccccc1-c1coc2cc(OC(=O)/C=C/c3ccccc3)ccc2c1=O | inactive: -5.74% |
| Cc1ccc2[nH]c(=O)c(C(c3nnnn3CCc3ccccc3)N3CCOCC3)cc2c1 (stereo unspecified) | inactive: -2.33% |
| O=C(CCc1ccccc1)NNC(=S)NC(=O)c1ccc(Cl)cc1 | inconclusive: -38.6% |
| CCCCCCCN(C(=O)CCl)c1cccc(C)c1 | inactive: 16% |
| Cc1ccc(S(=O)(=O)CCSc2cccc(C(=O)Nc3ccccc3C(=O)O)c2)cc1 | inconclusive: -74.5% |
| CCc1ccc(-c2nn(-c3ccccc3)cc2CSC(=N)N)cc1 | inconclusive: -52.5% |
| Cc1ccc(C2C(C(N)=S)=C(N)OC3=C2C(=O)CC(C)(C)C3)cc1 (stereo unspecified) | inconclusive: -32.1% |
| COc1cccc(NC(=O)c2ccc(-n3cccn3)nc2)c1 | inconclusive: -40.9% |
| C(=N\n1cnnc1)/c1ccc(N2CCOCC2)cc1 | inconclusive: -31.1% |
| CCN1CCN(C(=O)CN(CC)S(=O)(=O)c2ccc(Cl)cc2)CC1 | inactive: 8.35% |
| COc1ccccc1/C=C/C=N/n1c(-c2cc(C)[nH]n2)n[nH]c1=S | inactive: 7.59% |
| O=c1oc(-c2ccccc2Cl)nc2ccsc12 | inconclusive: -32% |
| Cc1cccc(OCC(=O)Nc2nc3ccc([N+](=O)[O-])cc3s2)c1 | inconclusive: -39.7% |
| CC(=O)Nc1ccc2c(c1)nc(CCN1CCC(C)CC1)n2C | active: -101% |
| CCOC(=O)Nc1nc(-c2ccccc2)c(C(=O)c2ccccc2)s1 | active: -82.9% |
| Cc1ccc(-c2ccc(/C=C3\C(=O)ON=C3c3ccccc3)o2)c([N+](=O)[O-])c1 | inactive: 25.6% |
| COc1ccc(NC(=O)Nc2ccc(C)cc2OC(F)F)cc1OC | inconclusive: -73.8% |
| N#Cc1c(NC(=O)CSC2=NCCS2)sc2c1CCCC2 | inconclusive: -34.4% |
